From PubChem BioAssay AID248 (DTP/NCI, 2004) come the findings set out here.

This experiment concerns L1210 leukemia ip in BDF1 mice, survival T/C. Nature of the experiment: NCI In Vivo Anticancer Drug Screen. Data for tumor model L1210 Leukemia (intraperitoneal) in B6D2F1 (BDF1) mice. As to conditions: T/C endpoint: mean survival time, higher T/C = longer survival.
[1] abbreviates: dose: 400.0 mg/kg/injection, schedule: Q04DX002 (ip), vehicle: saline with Tween-80.
[2] abbreviates: dose: 400.0 mg/kg/injection, schedule: Q01DX001 (ip), vehicle: saline.

The list is a part of this screen's results and no random one: it gathers tests that were run many times, whatever their T/C, doses with no T/C, and many T/C values between a quarter and a half above the control. Further doses and runs are listed elsewhere. T/C is the treated group as % of the vehicle group. Some doses have a count of surviving animals in place of a T/C: the source holds a T/C of zero for them, seemingly a mark for toxic or unscored doses. Some doses without a T/C left all or most animals alive at the check, yet need not have been tolerated: survival well below the control is almost never listed, so the zero probably covers shortened survival too. Counts of survivors are from the toxicity check (mostly the fifth day) where no day follows; animals may have died later. Schedules are NCI's codes, taken here to give the interval after Q, in days (D) or hours (H), and the number of doses after X. Some schedules carry Z or #; the key to these is not given. For survival time, the PubChem record calls one and a half times the control and up active, and a quarter to a half above the control has no call in these data; cut-offs in other NCI protocols can differ. Counts like (3×) count equal records among those shown. Some T/C values are followed by the survivors on the day toxicity was checked, most often the fifth; where none is given, no animal had died by that day.

For the molecule `CC[CH2][Sn]([Br])([CH2]CC(=O)OC)[CH2]CC(=O)OC`, the survivor count under setting [1] is 0 of 3.
For `CC(C)(C)C1CCC(N=C(N)CS)CC1` (stereo unspecified), the survivor count is, setting by setting: (dose: 12.5 mg/kg/injection, schedule: Q01DX001 (ip), vehicle: carboxymethylcellulose (CMC)) 1 of 6; (dose: 25.0 mg/kg/injection, schedule: Q01DX001 (ip), vehicle: carboxymethylcellulose (CMC)) 0 of 6; (dose: 50.0 mg/kg/injection, schedule: Q01DX001 (ip), vehicle: carboxymethylcellulose (CMC)) 0 of 6; (dose: 100.0 mg/kg/injection, schedule: Q01DX001 (ip), vehicle: carboxymethylcellulose (CMC)) 0 of 6; (dose: 200.0 mg/kg/injection, schedule: Q01DX001 (ip), vehicle: carboxymethylcellulose (CMC)) 0 of 6; (dose: 400.0 mg/kg/injection, schedule: Q01DX001 (ip), vehicle: carboxymethylcellulose (CMC)) 0 of 6.
Regarding `OCCSc1ccc(Cl)cc1`, the survivor count (dose: 400.0 mg/kg/injection, schedule: Q01DX009 (ip), vehicle: other) is given as 0 of 6.
As for `CC(=O)OCCC[P+](c1ccccc1)(c1ccccc1)c1ccccc1`, the survivor count under setting [2] is given as 0 of 6.
Regarding `CC1CCC2(C(=O)O)CCC3(C)C(=CCC4C5(C)CC(O)C(O)C(C)(C(=O)O)C5CCC43C)C2C1(C)O` (stereo unspecified), the survivor count (dose: 400.0 mg/kg/injection, schedule: Q01DX001 (ip), vehicle: alkali diluted with saline) is recorded as 0 of 6 and the survivor count (dose: 400.0 mg/kg/injection, schedule: Q01DX001 (ip), vehicle: saline with Tween-80) is reported as 3 of 6.
For `CSc1nc(N(C)C)c2[nH]c(C)nc2n1`, the survivor count under setting [2] is given as 2 of 6.
On to `CCC1(O)CC2CN(CCc3c([nH]c4ccccc34)C(C(=O)OC)(c3cc4c(cc3OC)N(C)C3C(O)(C(=O)NCCO)C(O)C5(CC)C=CCN6CCC43C65)C2)C1` (stereo unspecified), for which the T/C by setting is: (dose: 0.26 mg/kg/injection, schedule: Q01DX009 (ip), vehicle: saline) 130 % of control; (dose: 0.43 mg/kg/injection, schedule: Q01DX009 (ip), vehicle: saline) 148 % of control; (dose: 0.65 mg/kg/injection, schedule: Q04DX003 (ip), vehicle: saline) 127 % of control; (dose: 0.72 mg/kg/injection, schedule: Q01DX009 (ip), vehicle: saline) 138 % of control; (dose: 1.08 mg/kg/injection, schedule: Q04DX003 (ip), vehicle: saline) 132 % of control; (dose: 1.8 mg/kg/injection, schedule: Q04DX003 (ip), vehicle: saline) 145 % of control. In addition, the T/C by setting is: (dose: 3.0 mg/kg/injection, schedule: Q04DX003 (ip), vehicle: saline) 134 % of control [7 of 8 alive]; (dose: 1800.0 micrograms/kg/injection, schedule: Q04DX003 (ip), vehicle: saline) 138 % of control; (dose: 3000.0 micrograms/kg/injection, schedule: Q04DX003 (ip), vehicle: saline) 140 % of control.
As for `O=C(c1ccccc1)C1CSSC1c1ccccc1` (stereo unspecified), the survivor count is given as 2 of 6 (dose: 100.0 mg/kg/injection, schedule: Q04DX003 (ip), vehicle: Klucel (hydroxypropylcellulose) (HPC)); 2 of 6 (dose: 200.0 mg/kg/injection, schedule: Q04DX003 (ip), vehicle: Klucel (hydroxypropylcellulose) (HPC)); 0 of 6 (dose: 400.0 mg/kg/injection, schedule: Q04DX003 (ip), vehicle: Klucel (hydroxypropylcellulose) (HPC)).
With `NC(=O)NCC(=O)O`, where the note is “dose: 400.0 mg/kg/injection, schedule: Q01DX009 (ip), vehicle: Klucel (hydroxypropylcellulose) (HPC)”, the survivor count was 1 of 6.
With `COC1NC(=O)NC(=O)C1=[N+]=[N-]` (stereo unspecified), the T/C runs as follows: (dose: 1.2 mg/kg/injection, schedule: Q01DX009 (ip), vehicle: saline) 130 % of control; (dose: 1.9 mg/kg/injection, schedule: Q01DX009 (ip), vehicle: saline) 132 % of control; (dose: 2.9 mg/kg/injection, schedule: Q01DX009 (ip), vehicle: saline with Tween-80) 128 % of control; (dose: 4.3 mg/kg/injection, schedule: Q01DX009 (ip), vehicle: saline with Tween-80) 128 % of control. Moreover, the survivor count (dose: 20.0 mg/kg/injection, schedule: Q04DX003 (ip), vehicle: saline with Tween-80) is 0 of 6.
Regarding `CCCCN(C)CC#N`, the survivor count (dose: 50.0 mg/kg/injection, schedule: Q04DX003 (ip), vehicle: saline with Tween-80) is 0 of 6.
As to `CCN(CC)CCNc1ccc(CO)c2oc3ccccc3c(=O)c12`, the survivor count (dose: 400.0 mg/kg/injection, schedule: Q01DX009 (ip), vehicle: saline) was 0 of 6.
As for `CCCCc1nc2c(c(=O)n(C)c(=O)n2C)n1C`, the survivor count under setting [2] was 0 of 4.
In the case of `COc1ccc(NC(=O)Nc2ccc(C3=NCCN3)cc2)cc1NC(=O)Nc1ccc(C2=NCCN2)cc1`, the T/C (dose: 62.0 mg/kg/injection, schedule: Q01DX Z (ip), vehicle: carboxymethylcellulose (CMC)) is 127 % of control. In addition, the survivor count runs as follows: (dose: 250.0 mg/kg/injection, schedule: Q01DX Z (ip), vehicle: carboxymethylcellulose (CMC)) 1 of 6; (dose: 500.0 mg/kg/injection, schedule: Q01DX Z (ip), vehicle: carboxymethylcellulose (CMC)) 0 of 6.
Take `CC(=O)[C@H]1CC[C@H]2[C@@H]3C[C@H](C)C4=CC(=O)CC[C@]4(C)[C@H]3[C@@H](O)C[C@]12C`: the survivor count under setting [2] is recorded as 3 of 6.
Regarding `COc1cc2c(cc1OC)C(OC)N(C)c1c-2ccc2cc3c(cc12)OCO3` (stereo unspecified), the T/C (dose: 5.0 mg/kg/injection, schedule: Q01DX009 (ip), vehicle: steroid suspending solution) is 134 % of control; the T/C (dose: 5.0 mg/kg/injection, schedule: Q01DX009 (ip), vehicle: water) was 128 % of control; the T/C (dose: 10.0 mg/kg/injection, schedule: Q01DX009 (ip), vehicle: steroid suspending solution) was 129 % of control; the T/C (dose: 10.0 mg/kg/injection, schedule: Q01DX009 (ip), vehicle: water) is 127 % of control; the T/C (dose: 20.0 mg/kg/injection, schedule: Q01DX009 (ip), vehicle: saline) was 131 % of control; the T/C (dose: 20.0 mg/kg/injection, schedule: Q01DX009 (ip), vehicle: water) was 134 % of control. Also, the T/C was 131 % of control (dose: 40.0 mg/kg/injection, schedule: Q01DX009 (ip), vehicle: saline); 133 % of control [3 of 4 alive] (dose: 40.0 mg/kg/injection, schedule: Q01DX009 (ip), vehicle: steroid suspending solution); 148 % of control (dose: 40.0 mg/kg/injection, schedule: Q01DX009 (ip), vehicle: water); 147 % of control (dose: 80.0 mg/kg/injection, schedule: Q01DX009 (ip), vehicle: saline); 126 % of control (2×) (dose: 100.0 mg/kg/injection, schedule: Q01DX009 (ip), vehicle: Klucel (hydroxypropylcellulose) (HPC)); 133 % of control (dose: 200.0 mg/kg/injection, schedule: Q04DX002 (ip), vehicle: Klucel (hydroxypropylcellulose) (HPC)). Besides, for the setting “dose: 400.0 mg/kg/injection, schedule: Q04DX002 (ip), vehicle: Klucel (hydroxypropylcellulose) (HPC)”, the T/C is 126 % of control.
As for `Cl[Si]1(Cl)CCCCC1`, the survivor count was 4 of 6 (dose: 75.0 mg/kg/injection, schedule: Q01DX001 (ip), vehicle: saline); 0 of 6 (dose: 150.0 mg/kg/injection, schedule: Q01DX001 (ip), vehicle: saline); 0 of 6 (dose: 300.0 mg/kg/injection, schedule: Q01DX001 (ip), vehicle: saline).
For `Cc1ncc(CO)c(C2NOCc3nscc32)c1O` (stereo unspecified), the survivor count runs as follows: (dose: 6.25 mg/kg/injection, schedule: Q01DX009 (ip), vehicle: Klucel (hydroxypropylcellulose) (HPC)) 6 of 6; (dose: 25.0 mg/kg/injection, schedule: Q04DX003 (ip), vehicle: Klucel (hydroxypropylcellulose) (HPC)) 6 of 6; (dose: 50.0 mg/kg/injection, schedule: Q04DX003 (ip), vehicle: Klucel (hydroxypropylcellulose) (HPC)) 5 of 6; (dose: 100.0 mg/kg/injection, schedule: Q01DX001 (ip), vehicle: Klucel (hydroxypropylcellulose) (HPC)) 2 of 6; (dose: 200.0 mg/kg/injection, schedule: Q01DX001 (ip), vehicle: Klucel (hydroxypropylcellulose) (HPC)) 0 of 6; (dose: 400.0 mg/kg/injection, schedule: Q01DX001 (ip), vehicle: Klucel (hydroxypropylcellulose) (HPC)) 0 of 6.
Regarding `C[n+]1ccn(CCCl)c1`, the survivor count (dose: 200.0 mg/kg/injection, schedule: Q01DX Z (ip), vehicle: saline) is on record as 5 of 6.
Consider `O=C1C2C3C=CC(CC3)C2C(=O)C2C3C=CC(C3)C12` (stereo unspecified), for which, under setting [1], the survivor count is 0 of 3.
